# According to PubChem BioAssay AID2417 (National Center for Advancing Translational Sciences (NCATS), 2010):
# About 4,300 (3.1%) of roughly 140,000 compounds were called active. Inconclusive results, whose numbers are uncertain, are shown with a selection of clear calls.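 The calls were made as follows: active = readout at or below -70, meaning at least 70% loss of cells showing the perinucleolar compartment, a nuclear body marking cancer cells; inconclusive = readout between -30 and a set limit; inactive = the rest.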
# Test: High Content Assay for Compounds that inhibit the Assembly of the Perinucleolar Compartment;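 also: plate controls were DMSO wells for no effect and camptothecin positive control wells for full effect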
# Details: PC3M PTB-GFP, PNC prevalence imaging, 16 h; at 10 µM; hits give low values
# Outline: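 Compounds are pinned in duplicate onto adhered PC3M cells stably expressing GFP-tagged PTB and incubated 16 h at 37 C. Cells are then fixed, nuclei stained with Hoechst, and PNC-positive cells counted.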
row,SMILES,"activity change (PNC), negative = inhibition"
1,Cc1ccccc1OC(C)C(=O)NC1CCCC1 (stereo unspecified),inactive: -12.4%
2,N=C1/C(=C\c2ccc(SCc3ccco3)o2)C(=O)N=C2SC=NN12,inactive: 66.6%
3,Oc1ccccc1N1CCN(c2ncccn2)CC1,inconclusive: -57.9%
4,CC1=C(Sc2nc3ccccc3[nH]2)C(=O)NC(C)(C)C1,inactive: 4.68%
5,CCN(CC)CCNC(=O)C1c2ccccc2C(=O)N(CCOC)C1c1ccc(F)cc1 (stereo unspecified),inconclusive: -34.8%
6,Cc1ccc(-c2nn3c(C)nnc3c3ccccc23)cc1S(=O)(=O)NCCN1CCOCC1,inactive: 68.4%
7,Cc1[nH]nc2c1C(c1ccc(-c3ccc(Cl)cc3)o1)C(C#N)=C(N)O2 (stereo unspecified),inactive: -5.5%
8,OCCN1CCN(C(c2cccs2)c2ccc3cccnc3c2O)CC1 (stereo unspecified),inactive: 20.6%
9,CC(NC(=O)Cn1cnc([N+](=O)[O-])n1)c1ccccc1 (stereo unspecified),inactive: 22.3%
10,O=C(O)c1cccnc1Oc1ccccc1,inconclusive: -57.3%
11,CCOC(=O)CSC1=C(C#N)C(c2ccc(Cl)cc2)C(C(=O)OC)C(=O)N1 (stereo unspecified),inconclusive: -37.1%
12,COC(=O)c1sc(C(=O)OC)c(C(=O)OC)c1C(=O)OC,inactive: 23.5%
13,CCSc1nnc(NC(=O)c2cccs2)s1,inconclusive: -59.9%
14,O=C(O)C1CCCN1S(=O)(=O)c1ccc2[nH]c(=O)c(=O)[nH]c2c1 (stereo unspecified),inactive: 29.1%
15,CCOc1ccccc1N/C(=C(/C(Cl)=C(Cl)Cl)[N+](=O)[O-])n1cncn1,inactive: 10.4%
16,O=C(c1c(F)cccc1F)N1CCN(c2ncccn2)CC1,inconclusive: -78.4%
17,O=C(CSc1nnc(-c2ccccn2)n1Cc1ccccc1)NC1CCCC1,inconclusive: -36%
18,O=C(NC1CCCCC1)N(CCN1CCCC1)Cc1cc2cc3c(cc2[nH]c1=O)OCCO3,inconclusive: -47.4%
19,Cc1cc2oc(=O)cc(CN3CCC(C)CC3)c2cc1Cl,inactive: -6.86%
20,Nc1nnc(SCCCC(=O)c2ccc(Br)cc2)s1,inactive: -29.9%
21,COCC(C)N=Cc1c(O)[nH]c2ccccc12 (stereo unspecified),inconclusive: -31.8%
22,O=C(O)/C(=C\c1ccccc1Cl)c1ccc(S(=O)(=O)N2CCCCC2)s1,inactive: -23.3%
23,Cc1ccc(NC(=O)CCSc2nnnn2-c2ccc3c(c2)OCO3)cc1C,inactive: 34.7%

# Molecules shown so far that contain two or more sulfur atoms, in the order listed:
row,SMILES,"activity change (PNC), negative = inhibition"
2,N=C1/C(=C\c2ccc(SCc3ccco3)o2)C(=O)N=C2SC=NN12,inactive: 66.6%
13,CCSc1nnc(NC(=O)c2cccs2)s1,inconclusive: -59.9%
20,Nc1nnc(SCCCC(=O)c2ccc(Br)cc2)s1,inactive: -29.9%
22,O=C(O)/C(=C\c1ccccc1Cl)c1ccc(S(=O)(=O)N2CCCCC2)s1,inactive: -23.3%

# (more compounds)

row,SMILES,"activity change (PNC), negative = inhibition"
1,CS(=O)(=O)NCCC1=CCCCC1,inactive: -17.3%
2,O=C(Nc1ccc(N2CCN(C(=O)c3ccco3)CC2)cc1)c1ccc2c(c1)OCO2,inactive: 277%
3,CCCCC(=O)Nc1sc2c(c1-c1nc3ccccc3s1)CCN(C(C)=O)C2,inactive: -27.6%
4,Cc1noc(NC(=O)c2ccccc2)c1C#N,inactive: -17.9%
5,O=C1N/C(=N\N=C\c2cccs2)SC1Cc1cccc(Cl)c1Cl (stereo unspecified),inactive: -5.49%
6,COC(=O)c1sccc1N/N=C/c1ccc(OC)c(OC)c1OC,inconclusive: -61.7%
7,COc1ccc(Nc2ncnc3sc(-c4ccccc4)cc23)cc1,inactive: 63.3%
8,C(=C1/CCCC2=C1Nc1ncnn1C2c1ccccc1)/c1ccccc1 (stereo unspecified),inconclusive: -40.2%
9,CC1=CN2C(=NC(=O)CC2(C)C(=O)N(CC(=O)NC2CCCC2)c2ccccc2C)C=C1 (stereo unspecified),active: -100%
10,CC(=O)c1ccc(NC(=O)COC(=O)c2ccccc2Nc2ccccc2)cc1,inconclusive: -70.4%
11,CCCCn1c(C(C)NC(=O)CCC)nc2ccccc21 (stereo unspecified),inconclusive: -50.3%
12,COc1cc2nc(SCc3ccc(F)cc3)n(Cc3cccs3)c(=N)c2cc1OC,inconclusive: -42.3%
13,CCN(CC)CCOc1ccc2c(c1)C(=NO)c1cc(OCCN(CC)CC)ccc1-2,inactive: 6.69%
14,Cc1cc(N2CCOCC2)ccc1/C=C\[N+](=O)[O-],inconclusive: -48.2%
15,Oc1ccc(Cl)cc1Cc1cc(Cl)ccc1O,inactive: -1.4%
16,COc1cc(/C=C2/SC(=S)N(CC(=O)Nc3cccnc3)C2=O)cc(OC)c1OC,inconclusive: -35.8%
17,CSCCC(NC(=O)c1ccccc1)C(=O)OCC(=O)c1ccc[nH]1 (stereo unspecified),inactive: 8.56%
18,COc1cc(OC)cc(-n2nc(C(=O)NCCCN3CCOCC3)c3ccccc3c2=O)c1,inconclusive: -67%
19,Cc1[nH]nc2c1C1(CCC3(CC1)OCCO3)C(C#N)=C(N)O2,inactive: 22.9%
20,COc1ccc(/C=C/C(=O)c2ccccc2)cc1COc1ccc(F)cc1,inactive: 35.7%
21,CCC(C)(NC(=O)c1ccc(=O)[nH]c1)C(=O)NC1CCCC1 (stereo unspecified),inconclusive: -50%
22,C1CCN(Cc2nnnn2C2CCCC2)CC1,inactive: -3.58%
23,COCCn1c(SCc2c(F)cccc2Cl)nc2c1c(=O)[nH]c(=O)n2C,inconclusive: -51.5%

row,SMILES,"activity change (PNC), negative = inhibition"
1,CC1CCCN(C(=O)CSc2nnc3n(C4CCCC4)c(=O)c4ccccc4n23)C1 (stereo unspecified),inactive: 54.3%
2,CCCCn1c(=N)n(CC(O)COc2cccc(C)c2)c2ccccc21 (stereo unspecified),inconclusive: -47.9%
3,CC(NC(=O)C1CC1)C(c1cccs1)N1CCN(c2ccccc2)CC1 (stereo unspecified),inconclusive: -44.7%
4,CCOC(=O)CN1N=C(/C=C/c2ccc(OC)cc2)CCC1=O,inactive: -17.3%
5,CC1(C)Cc2c(sc3c2c(=N)n(Cc2ccco2)c(=O)n3CC(=O)Nc2ccccc2)CO1,inconclusive: -32%
6,COc1ccc(-c2nn(-c3ccccc3)cc2C2CC(c3cccs3)=NN2C(=O)CCCC(=O)O)cc1 (stereo unspecified),inconclusive: -49.3%
7,CC1CCc2nc3sc4c(c3c(N)c2C1)CCCC4 (stereo unspecified),inconclusive: -30.5%
8,Cc1ccc(S(=O)(=O)NC(CC(C)C)C(=O)Nc2nccs2)cc1 (stereo unspecified),inactive: 0.117%
9,CCc1ccc(/C=C2/C(=O)N(c3ccccc3)C(=S)N2CC(=O)OC)s1,inconclusive: -50.8%
10,COc1ccccc1-n1cnnc1SC1CCOC1=O (stereo unspecified),inconclusive: -71%
11,O=C(N/N=C(/CC(=O)c1cccs1)C(F)(F)F)c1ccc(O)cc1,inactive: -2.65%
12,CCNC(=O)CN1C(=O)NC(CCc2ccccc2)C1=O (stereo unspecified),inconclusive: -42.3%
13,CC(C)Oc1cccc(-c2cc(C(=O)NC(=S)N(C)c3ccccc3C(=O)O)c3ccccc3n2)c1,inconclusive: -47.4%
14,O=C(CNC(=O)c1cccs1)NCC(=O)OCc1ccccc1Cl,active: -82.6%
15,CC1Cc2ccccc2N1C(=S)NC(=O)c1cccc(Br)c1 (stereo unspecified),inconclusive: -32.4%
16,C#CC[N+](C)(C)CCCCCCCCCCCC,inconclusive: -64.6%
17,Cc1nn(Cc2ccccc2)c(Cl)c1/C=N/NC(=O)c1cccnc1,inactive: -4.76%
18,Cc1ccc(Nc2nc(CSc3nnnn3C)cs2)cc1,inactive: -7.01%
19,Cc1cc(C)c(NC(=O)C2CCCN2C(=O)NC2CCCCC2)c(C)c1 (stereo unspecified),inconclusive: -37.1%
20,Cc1ccc(C(=O)NNC(=O)c2ccco2)cc1,inconclusive: -42.4%
21,CCc1cc(OCCCSc2nc(C)cc(=O)[nH]2)ccc1Cl,inactive: 28.8%
22,O=C(c1ccccn1)N1N=C2/C(=C/c3ccc(F)cc3)CCCC2C1c1ccc(F)cc1 (stereo unspecified),inactive: 27.7%
23,C=CCN1CC(O)=C(c2ccccc2)C1=N,inconclusive: -31.3%

row,SMILES,"activity change (PNC), negative = inhibition"
1,Cc1cc(C)n(C(=O)CNc2cccc(Cl)c2C)n1,inconclusive: -44.5%
2,O=C(Nc1ccn(Cc2c(F)c(F)cc(F)c2F)n1)c1ccc(COc2ccc(Cl)cc2Cl)o1,inconclusive: -56.2%
3,COC(=O)c1[nH]nc2c1C(=O)N(C1CCCCC1)C2=O,inconclusive: -46.1%
4,Cc1cc(Nc2nc3ccccc3[nH]c2=O)n(-c2ccccc2)n1,inconclusive: -70%
5,COc1ccc(C(=O)Nc2ccccc2Cc2ccccc2)c(OC)c1,inconclusive: -46.9%
6,COc1ccc(C2C(C(C)=O)=C(O)C(=O)N2c2cccnc2)c(OC)c1 (stereo unspecified),inconclusive: -48%
7,Cc1c(Br)cc(C(=O)NCc2ccco2)c(C)c1C,inconclusive: -54.7%
8,CCn1c(SCC(=O)c2ccc(O)c(O)c2)nnc1-c1ccccc1,inactive: 20.3%
9,Cc1ccc(NC(=S)NNC(=O)Cn2nc([N+](=O)[O-])cc2C)cc1,inconclusive: -57.2%
10,Cc1ccc(NC(=O)COC(=O)CCC(=O)c2ccc(Cl)cc2)cc1S(=O)(=O)N(C)C,inconclusive: -46.1%
11,O=C(CNC(=O)c1ccco1)NCC(=O)OCc1ccccc1Br,inconclusive: -57%
12,O=C1c2cc([N+](=O)[O-])cc3cc([N+](=O)[O-])cc(c23)C(=O)N1c1ccccn1,inconclusive: -47%
13,Cc1ccc(OCCCN2CCCC2)c(C)c1,inconclusive: -58.9%
14,CC(C)n1c(NCc2cccs2)nc2ccccc21,inconclusive: -36.8%
15,O=C(CCCC(=O)N(c1ccc2c(c1)OCCO2)C(C(=O)NC1CCCCC1)c1ccc(F)cc1)Nc1ccccn1 (stereo unspecified),inconclusive: -45.9%
16,Cn1c(=O)c2c(SCc3ccccc3)nc(-c3ccco3)nc2n(C)c1=O,inconclusive: -40.6%
17,Cc1ccc(-c2c[n+](CC(=O)N3c4ccccc4Sc4ccccc43)c3n2CCC3)cc1,inconclusive: -38%
18,CCC(c1nnnn1Cc1ccc2c(c1)OCO2)N1CCN(c2ccc(OC)cc2)CC1 (stereo unspecified),inconclusive: -39.9%
19,Cc1ccc(CN2CCN(/N=C/c3ccc(C(F)(F)F)cc3)CC2)c(C)c1,inconclusive: -35.6%
20,COCCN1Cc2cccc(C(=O)NCc3ccc4c(c3)OCO4)c2C1=O,inconclusive: -35.2%
21,Cn1c(CCNC(=O)c2cccs2)nnc1SCC(=O)Nc1nc(-c2ccccc2)cs1,inconclusive: -46%
22,COc1cccc(-c2nnc(SCN3C(=O)c4ccccc4C3=O)n2C)c1,inconclusive: -56.8%
